These are yes or no findings as the source states them, for the method shown. Binding seen in cells or lysates may run through a third protein. Some results given as binding are weak or reduced against the parent protein; the word gives no strength.

Chains of the proteins cited; added tags and fusions are not shown.
UniProt Q96S59: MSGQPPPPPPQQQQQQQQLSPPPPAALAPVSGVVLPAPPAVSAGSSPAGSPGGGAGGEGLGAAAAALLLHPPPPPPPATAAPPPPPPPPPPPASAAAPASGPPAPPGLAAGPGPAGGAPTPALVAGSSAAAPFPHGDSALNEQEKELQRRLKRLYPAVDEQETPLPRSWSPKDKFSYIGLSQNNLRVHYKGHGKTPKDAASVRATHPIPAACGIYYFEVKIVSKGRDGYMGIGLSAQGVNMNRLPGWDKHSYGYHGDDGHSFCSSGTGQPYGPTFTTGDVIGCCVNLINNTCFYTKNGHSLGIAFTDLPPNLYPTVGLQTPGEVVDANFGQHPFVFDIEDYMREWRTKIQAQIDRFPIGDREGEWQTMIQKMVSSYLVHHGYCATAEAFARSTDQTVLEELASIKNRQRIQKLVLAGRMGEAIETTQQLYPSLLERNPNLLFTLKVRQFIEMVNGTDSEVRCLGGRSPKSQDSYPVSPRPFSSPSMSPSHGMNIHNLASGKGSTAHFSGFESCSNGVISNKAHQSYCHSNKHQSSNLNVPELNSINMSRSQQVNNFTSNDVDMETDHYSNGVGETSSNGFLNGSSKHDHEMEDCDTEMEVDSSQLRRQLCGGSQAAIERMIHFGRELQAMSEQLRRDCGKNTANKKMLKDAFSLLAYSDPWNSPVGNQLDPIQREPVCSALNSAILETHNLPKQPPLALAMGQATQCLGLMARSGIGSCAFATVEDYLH
UniProt Q9Z188: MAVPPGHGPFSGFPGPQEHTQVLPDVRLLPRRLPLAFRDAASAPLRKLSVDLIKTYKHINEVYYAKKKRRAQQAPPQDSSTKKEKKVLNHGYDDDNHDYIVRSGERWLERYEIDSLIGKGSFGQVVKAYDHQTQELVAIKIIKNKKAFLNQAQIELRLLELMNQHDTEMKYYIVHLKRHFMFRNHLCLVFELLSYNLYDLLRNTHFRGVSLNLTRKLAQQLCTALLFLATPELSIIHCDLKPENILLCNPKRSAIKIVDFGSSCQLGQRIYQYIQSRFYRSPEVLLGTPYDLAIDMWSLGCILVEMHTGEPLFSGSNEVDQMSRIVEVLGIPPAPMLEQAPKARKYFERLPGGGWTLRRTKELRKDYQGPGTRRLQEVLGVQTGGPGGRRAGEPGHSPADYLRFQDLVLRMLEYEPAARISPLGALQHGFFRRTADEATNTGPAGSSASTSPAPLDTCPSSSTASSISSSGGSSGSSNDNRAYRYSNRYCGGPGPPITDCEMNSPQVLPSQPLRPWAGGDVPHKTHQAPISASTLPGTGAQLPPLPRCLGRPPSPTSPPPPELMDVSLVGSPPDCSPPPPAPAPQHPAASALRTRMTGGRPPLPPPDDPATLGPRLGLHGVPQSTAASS
UniProt Q9JKC6: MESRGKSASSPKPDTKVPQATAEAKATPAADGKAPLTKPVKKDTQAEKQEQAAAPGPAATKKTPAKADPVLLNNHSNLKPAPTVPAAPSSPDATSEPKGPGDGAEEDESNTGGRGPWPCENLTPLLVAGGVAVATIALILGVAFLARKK

Drawing on article PMC3842983, this text covers binding for two substances.

The assay deals with human FLAG-tagged RanBPM full length (human) (UniProt Q96S59). The assay can be described thus: co-IP; HEK293T cells double or triple transfected; immunoprecipitation of FLAG-RanBPM with rabbit polyclonal anti-FLAG and protein A agarose from 2 mg lysate; Western blot.

With “mouse Dyrk1B (dual specificity tyrosine-phosphorylation regulated kinase 1B) full length (from UniProt Q9Z188 1-629) (enzyme)”, the binding entry was “binds”.

As to “mouse Cend1 full length (expressed in HEK293T cells) (from UniProt Q9JKC6 1-149)”, the binding result is “binds”.
